# Some entries share one result that the patent states for a list of compounds.
# Assay: in-vitro release (dissolution) of the actives from the bilayer tablet, USP paddle method
# Format: physicochemical
# Method: Therefore, the release profiles of the actives are as follows; the maximum 40% of total amount of flurbiprofen is released in 2 hours and 50-80% in 6 hours and at least 75% in 8 hours in 900 ml of phosphate buffer at pH 7.2 at 37° C. using USP paddle method rotating at 50 RPM. Glucosamine is released immediately and minimum 75% of the total amount is dissolved in 60 min.
Compound,"total amount of glucosamine dissolved (in 60 min, immediate release layer)","total amount of flurbiprofen released (in 8 hours, 900 ml phosphate buffer pH 7.2, 37° C., USP paddle method, 50 RPM)"
N[C@H]1C(O)O[C@H](CO)[C@@H](O)[C@@H]1O (some centres unmarked) [Glucosamine],at least 75%,
"CC(C(=O)O)c1ccc(-c2ccccc2)c(F)c1 (centres unmarked) [flurbiprofen, Flurbiprofen]",,at least 75%

# From US20140377350A1, “BILAYER TABLET FORMULATIONS OF FLURBIPROFEN AND GLUCOSAMIN” (Sanovel Ilac Sanayi Ve Ticaret Anonim Sirketi, priority 2012, published 2014)
